Measured values from patent US9938331.
These are yes or no findings as the source states them, for the method shown. Some binding calls cover weakened binding; strength is not graded here.

By UniProt entry, the sequences of proteins in these tests, tags left out. Where a name states a change or a piece, a line headed by the entry shows the natural chain unless it says otherwise. Chains listed by the source or under a name are the forms on record and can include a tag or linker. Residues count along the entry.
human VEGF (P15692, form named): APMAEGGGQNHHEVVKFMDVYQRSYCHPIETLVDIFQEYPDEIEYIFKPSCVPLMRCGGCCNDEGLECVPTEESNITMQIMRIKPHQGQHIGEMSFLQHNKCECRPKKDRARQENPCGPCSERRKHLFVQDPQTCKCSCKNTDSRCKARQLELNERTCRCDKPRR
VEGF121 antigen (P15692, form named): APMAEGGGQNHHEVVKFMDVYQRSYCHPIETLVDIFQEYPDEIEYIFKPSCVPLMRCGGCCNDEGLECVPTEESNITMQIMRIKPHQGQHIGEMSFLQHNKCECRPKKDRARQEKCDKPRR
UniProt P10747, residues 19-152: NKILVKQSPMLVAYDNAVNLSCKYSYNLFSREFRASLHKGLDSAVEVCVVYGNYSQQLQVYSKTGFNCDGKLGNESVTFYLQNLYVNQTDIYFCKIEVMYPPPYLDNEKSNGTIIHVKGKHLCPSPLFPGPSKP

T1: EpCAM (UniProt P16422)
T1 sequence (looked up): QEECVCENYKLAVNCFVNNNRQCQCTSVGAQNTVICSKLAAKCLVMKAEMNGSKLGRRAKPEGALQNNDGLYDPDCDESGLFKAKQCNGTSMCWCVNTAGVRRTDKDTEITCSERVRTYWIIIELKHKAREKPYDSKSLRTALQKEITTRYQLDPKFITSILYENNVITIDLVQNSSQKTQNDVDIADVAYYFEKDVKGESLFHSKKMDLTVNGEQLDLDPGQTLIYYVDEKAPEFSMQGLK


How the values were obtained:
human VEGF (human) [1] = molecular target: human VEGF (human) (UniProt P15692); assay: starting sequence of the 2SS buildup library
human VEGF (human) [2] = molecular target: human VEGF (human) (UniProt P15692); assay: phage panning of cysteine-constrained peptide libraries
VEGF121 antigen = VEGF121 antigen (UniProt P15692); assay: phage panning of buildup libraries and screening
CD28 = CD28 (UniProt P10747); assay: phage ELISA on coated antigen after panning of 1SS libraries
EpCAM = molecular target: T1, EpCAM; assay: affinity selection of phagemid libraries against EpCAM (EpCam 2)

| Binder | binding (CD28) | other results |
| --- | --- | --- |
| FTCTNHWCPS |  | binding (human VEGF (human) [1]): binds; binding (human VEGF (human) [2]): binds |
| QAAGPSGPCAYAYYFTCTNHWCPSYYAYYCGQSGGSG (designed binder) [SEQ ID NO 359] |  | binding (VEGF121 antigen): binds |
| HTILTCDSGFCTLFGP [sNG0028S3.012] | binds |  |
| ELLLERCSWCSLFGPP [sNG0028S3.086] | binds |  |
| SWCTVFGNHDPSCNSR [sNG0028S3.004] | binds |  |
| FQCTRHWCPI |  | binding (human VEGF (human) [2]): binds |
| AGFSCENYFFCPPKNL [sNG0028S3.016] | binds |  |
| LTLECIGNICYVPHH |  | binding (EpCAM): binds |
| QAAGPSGPCAAYAYFTCTNHWCPSYYSAACGQSGGSG (designed binder) [SEQ ID NO 358] |  | binding (VEGF121 antigen): binds |
| QAAGPSGPCAYYSYFTCTNHWCPSYYSSYCGQSGGSG (designed binder) [SEQ ID NO 360] |  | binding (VEGF121 antigen): binds |
| SEQ ID NO 357 (designed binder) QAAGPSGPCSYYAYFTCTNHWCPSPPFAFTCTNHWCPSYYDSAYCGQSGGS |  | binding (VEGF121 antigen): binds |

The next lines start with results.

| binding (CD28) | Binder | other results |
| --- | --- | --- |
| binds | NSFYLCHSSVCGQLPS [sNG0028S3.082] |  |
| binds | MLDTTICPWCSLFGPV [sNG0028S3.081] |  |
| binds | KRLLECGALCALFGPP [sNG0028S3.008] |  |
| binds | NLWHVCHTSLCHSRLA [sNG0028S3.092] |  |
| binds | TTAYPDCFWCSLFGPP [sNG0028S3.085] |  |
| binds | SLSQQSCDWCWLFGPP [sNG0028S3.060] |  |
